PubChem BioAssay AID652259 – Drosophila RNAi Screening Center, 2013
Test: 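Knock-downs that push a Wingless-driven reporter up or down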 (primary screen). Cell system: Drosophila clone 8 imaginal disc epithelial cells. Reagent: long dsRNA against Drosophila genes. Challenge: pathway stimulated by co-transfected Wingless expression plasmid. Detection: 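Dual luciferase reads per well after Wingless plasmid stimulation: reporter firefly light and Renilla control light; activity is firefly divided by Renilla, a ratio not deposited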. Scale: firefly reporter light: higher = more Wg reporter light, before normalisation; Renilla control light: higher = more transfected or surviving cells. Hit rule: 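Strong candidates differ from their plate mean by at least two out of four per-plate statistical tests; weak candidates meet just one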. Meaning of the calls: active = candidate regulator (raises or lowers reporter); inactive = not a candidate.
The deposit covers about 22,000 reagents; shown is an unselected part of those that have a named target and a result. In the full data, 233 (1.1%) got an active call. 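Light values are raw, unnormalised plate reads; the ratio scores behind the reporter calls were not deposited.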 Unmarked entries are inactive. Names joined by + are all predicted targets of the reagent. Not given: the amount of reagent, the time to read-out, the dose of the treatment.

no.	gene knocked down	amplicon	reporter change call, replicate 1	firefly reporter light, replicate 1	firefly reporter light, replicate 2	Renilla control light, replicate 1	Renilla control light, replicate 2
1	CG7512 (GeneID 39289)	DRSC10863		4680		3648	
2	CG12402 (GeneID 41714)	DRSC14508		14485		3312	
3	CG6244 (GeneID 2768962)	DRSC10609		7554		4368	
4	CG34281 (GeneID 50039)	DRSC14807		16477		4328	
5	ph-d (GeneID 44889)	DRSC18819	Wg reporter activity raised (active)	29427		4685	
6	CG8197 (GeneID 35912)	DRSC07105		2609	8720	1056	3658
7	CG18789 (GeneID 317813)	DRSC02696		3286	12658	1876	5722
8	2mit (GeneID 41616)	DRSC14194		13315		3844	
9	2mit (GeneID 41616)	DRSC15224		8748		2776	
10	CG30350 (GeneID 246556)	DRSC07690		4332	8316	800	2763
11	Nup133 (GeneID 42680)	DRSC16150		3478	3826	1363	1312
12	CCHa2 (GeneID 41648)	DRSC14835		16178	6.96e5	3472	3.36e5
13	CG30050 (GeneID 246417)	DRSC05342		16053		10855	
14	CG42713 (GeneID 10178890)	DRSC01050		19145		8132	
15	comr (GeneID 37492)	DRSC04138		2264	7530	741	2807
16	CG16721 (GeneID 31520)	DRSC18113		2432	9924	967	2928
17	elB (GeneID 34844)	DRSC03527		3949	9386	1565	4433
18	CG9067 (GeneID 36197)	DRSC07328		9188		3736	
19	CG14561 (GeneID 40447)	DRSC11722		22483		5632	
20	CG42521 (GeneID 8674012)	DRSC10154		10627		4566	
21	twi (GeneID 37655)	DRSC04720	Wg reporter activity raised (active)	6164	10987	728	1760
22	Ugt317A1 (GeneID 37590)	DRSC04470		3285	8120	944	3312
23	Dp (GeneID 36461)	DRSC07402	Wg reporter activity lowered (active)	8725		4988	
24	CG13390 (GeneID 34154)	DRSC02261		1978	7360	792	2928
25	Dg (GeneID 36773)	DRSC06718		6701		1801	
26	CG43774 + CG43773	DRSC00287		2581	4116	1126	2007
27	CG43774 + CG43773	DRSC00288		3117	8413	1367	2896
28	Dhc93AB (GeneID 42485)	DRSC16644		12036		2626	
29	CG15930 (GeneID 31446)	DRSC18107		18640		11498	

Reformatted: entries from further up
gene knocked down,amplicon,"reporter change call, replicate 1","firefly reporter light, replicate 1","firefly reporter light, replicate 2","Renilla control light, replicate 1","Renilla control light, replicate 2"
CG13390 (GeneID 34154),DRSC02261,,1978,7360,792,2928
Dg (GeneID 36773),DRSC06718,,6701,,1801,
CG43774 + CG43773,DRSC00287,,2581,4116,1126,2007
CG43774 + CG43773,DRSC00288,,3117,8413,1367,2896
Dhc93AB (GeneID 42485),DRSC16644,,12036,,2626,
